In PubChem BioAssay AID264 (DTP/NCI, 2004):
The list is a part of this screen's results and no random one: it is rich in T/C values a quarter to a half above the control, in often repeated tests (any T/C) and in doses without a T/C. Further doses and runs are listed elsewhere. T/C: endpoint of the treated group in % of that of the vehicle group. Schedules are NCI's codes, taken here to give the interval after Q, in days (D) or hours (H), and the number of doses after X. Some T/C values are followed by the survivors on the day toxicity was checked, most often the fifth; without a count, all were alive then. Some entries hold several experiments; the values are given in rising order. Some doses have a count of surviving animals in place of a T/C: the source holds a T/C of zero for them, seemingly a mark for toxic or unscored doses. Counts of survivors are from the toxicity check (mostly the fifth day) where no day follows; animals may have died later.

Tested on: nude mice, LX-1 lung xenograft intrarenal, tumor weight T/C
Experiment: NCI In Vivo Anticancer Drug Screen. Data for tumor model Human Lung LX-1 Xenograft (intrarenal inoculation) in NU/NU Swiss (nude) mice
Conditions: T/C endpoint: mean tumor weight change, higher T/C = larger tumour; for T/C: evaluated on day 11
In short: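 Compound-treated mice carrying transplanted tumors were compared with vehicle-treated controls. Tumor size was the measured end point, and the value is the treated-group measurement divided by the control-group measurement (T/C).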

[1] = dose: 600.0 mg/kg/injection, schedule: Q04DX003 (sc), vehicle: suspension in saline
[2] = dose: 300.0 mg/kg/injection, schedule: Q04DX003 (sc), vehicle: saline with Tween-80
[3] = dose: 150.0 mg/kg/injection, schedule: Q04DX003 (sc), vehicle: saline

With O=c1[nH]c(=O)n(C2CC(O)C(CO)O2)cc1I (stereo unspecified) the survivor count (dose: 400.0 mg/kg/injection, schedule: Q01DX010 (sc), vehicle: saline with Tween-80) was 3 of 6 on day 11 and the survivor count (dose: 800.0 mg/kg/injection, schedule: Q01DX010 (sc), vehicle: saline with Tween-80) was 0 of 6 on day 11.

For CC(=O)O[C@@H]1CO[C@H]2O[C@H]3[C@@H](C(C=O)=C[C@H](O)[C@@H]4C5=C(C(C)C)CC[C@]5(C)CC[C@@]34C)[C@@]2(O)C1=O, the survivor count (dose: 100.0 mg/kg/injection, schedule: Q04DX003 (sc), vehicle: Klucel (hydroxypropylcellulose) (HPC)) was 3 of 6 on day 11 and the survivor count (dose: 400.0 mg/kg/injection, schedule: Q04DX003 (sc), vehicle: Klucel (hydroxypropylcellulose) (HPC)) was 3 of 6 on day 11.

For COC1/C=C\C=C(/C)C(=O)NC2=CC(=O)C=C(C2=O)C(OC)C(C)CC(OC)C(OC)C(C)/C=C(/C)C1OC(N)=O (stereo unspecified), the survivor count (dose: 9.0 mg/kg/injection, schedule: Q04DX003 (sc), vehicle: Klucel (hydroxypropylcellulose) (HPC)) was 1 of 6 on day 11, the survivor count (dose: 18.0 mg/kg/injection, schedule: Q04DX003 (sc), vehicle: Klucel (hydroxypropylcellulose) (HPC)) was 0 of 6 on day 11 and the survivor count (dose: 36.0 mg/kg/injection, schedule: Q04DX003 (sc), vehicle: Klucel (hydroxypropylcellulose) (HPC)) was 0 of 6 on day 11.

For NC(C(=O)O)c1ccc(CBr)cc1 (stereo unspecified), the survivor count (dose: 600.0 mg/kg/injection, schedule: Q04DX003 (sc), vehicle: acid diluted with saline) was 3 of 6 on day 11, the survivor count (dose: 1200.0 mg/kg/injection, schedule: Q04DX003 (sc), vehicle: acid diluted with saline) was 1 of 6 on day 11 and the survivor count (dose: 2400.0 mg/kg/injection, schedule: Q04DX003 (sc), vehicle: acid diluted with saline) was 0 of 6 on day 11.

In the case of COC1C(/C=C/C(C)=O)OC2OC(C)(C)OC21 (stereo unspecified), the survivor count [1] is reported as 0 of 6 on day 11.

For CC1CC(C)CC(C)C(O)/C(C#N)=C/C=C/CC(C2CCCC2C(=O)O)OC(=O)CC(O)C(C)C1 (stereo unspecified), the survivor count (dose: 48.0 mg/kg/injection, schedule: Q04DX003 (sc), vehicle: Klucel (hydroxypropylcellulose) (HPC)) was 0 of 6 on day 11.

In the case of [N-]=[N+]=CC(=O)CCC(=O)C=[N+]=[N-], the survivor count (dose: 6.0 mg/kg/injection, schedule: Q01DX010 (sc), vehicle: DMSO) is reported as 1 of 3 on day 11 and the survivor count (dose: 12.0 mg/kg/injection, schedule: Q01DX010 (sc), vehicle: DMSO) is reported as 0 of 3 on day 11.

In the case of CCCCC(=O)OCC(=O)[C@]1(O)Cc2c(O)c3c(c(O)c2[C@@H](OC2CC(NC(=O)C(F)(F)F)C(O)C(C)O2)C1)C(=O)c1c(OC)cccc1C3=O (stereo partly specified), the T/C (dose: 64.0 mg/kg/injection, schedule: Q01DX010 (sc), vehicle: distilled water + Tween-80) is reported as 45, 59 [2 of 2 alive on day 11], 66, 86, 104 % of control, the T/C (dose: 128.0 mg/kg/injection, schedule: Q01DX010 (sc), vehicle: distilled water + Tween-80) is reported as 22, 41, 43, 78, 111 % of control and the T/C (dose: 256.0 mg/kg/injection, schedule: Q01DX010 (sc), vehicle: distilled water + Tween-80) is reported as 14, 21, 24, 28, 62 % of control.

With COc1cccc2c1C(=O)c1c(O)c3c(c(O)c1C2=O)C[C@@](O)(/C(C)=N\NC(=O)CO)C[C@@H]3OC1CC(N)C(O)C(C)O1 (stereo partly specified) the survivor count (dose: 12.5 mg/kg/injection, schedule: Q01DX010 (sc), vehicle: saline) was 0 of 3 on day 11, the survivor count (dose: 25.0 mg/kg/injection, schedule: Q01DX010 (sc), vehicle: saline) was 0 of 3 on day 11 and the survivor count (dose: 50.0 mg/kg/injection, schedule: Q01DX010 (sc), vehicle: saline) was 0 of 3 on day 11. The survivor count (dose: 100.0 mg/kg/injection, schedule: Q01DX010 (sc), vehicle: saline) was 0 of 3 on day 11.

In the case of Oc1ccccc1C=NCCC[N-]CCCN=Cc1ccccc1O.[Co], the T/C (dose: 25.0 mg/kg/injection, schedule: Q01DX010 (sc), vehicle: suspension in saline) is reported as 147 % of control and the survivor count (dose: 200.0 mg/kg/injection, schedule: Q01DX010 (sc), vehicle: suspension in saline) is reported as 0 of 3 on day 11.

For C=C(C(=O)O)C(N)C(=O)O (stereo unspecified), the T/C (dose: 300.0 mg/kg/injection, schedule: Q04DX003 (sc), vehicle: suspension in saline) was 135 % of control, the T/C [1] was 134 % of control and the survivor count (dose: 2400.0 mg/kg/injection, schedule: Q04DX003 (sc), vehicle: suspension in saline) was 0 of 6 on day 11.

With c1ccc2c(NCCCCCCNc3c4ccccc4nc4ccccc34)c3ccccc3nc2c1 the T/C (dose: 20.0 mg/kg/injection, schedule: Q01DX010 (sc), vehicle: Klucel (hydroxypropylcellulose) (HPC)) was 128 % of control [2 of 2 alive on day 11], the survivor count (dose: 40.0 mg/kg/injection, schedule: Q01DX010 (sc), vehicle: Klucel (hydroxypropylcellulose) (HPC)) was 0 of 3 on day 11 and 1 of 2 on day 11 and the survivor count (dose: 80.0 mg/kg/injection, schedule: Q01DX010 (sc), vehicle: Klucel (hydroxypropylcellulose) (HPC)) was 0 of 3 on day 11.

For C[N+](C)(C)c1ncnc2nc[nH]c12, the survivor count (dose: 400.0 mg/kg/injection, schedule: Q01DX010 (sc), vehicle: saline) was 0 of 3 on day 11.

For COc1cc(C(=O)N/N=C/c2cccc([N+](=O)[O-])c2)cc(OC)c1OC, the T/C [2] was 146 % of control, the T/C (dose: 600.0 mg/kg/injection, schedule: Q04DX003 (sc), vehicle: saline with Tween-80) was 146 % of control and the T/C (dose: 1200.0 mg/kg/injection, schedule: Q04DX003 (sc), vehicle: saline with Tween-80) was 130 % of control.

CC1(C)OC1CS(=O)c1ccccc1 (stereo unspecified) was tested, and the T/C [2] was 139 % of control and the survivor count (dose: 2400.0 mg/kg/injection, schedule: Q04DX003 (sc), vehicle: saline with Tween-80) was 1 of 6 on day 11.

COC(C(=O)C(O)C(C)O)C1Cc2cc3cc(OC4CC(OC(C)=O)C(OC5CC(O)C(OC)C(C)O5)C(C)O4)cc(O)c3c(O)c2C(=O)C1OC1CC(OC2CC(OC3CC(C)(O)C(OC(=O)C(C)C)C(C)O3)C(O)C(C)O2)C(O)C(C)O1 (stereo unspecified) was tested, and the survivor count (dose: 4.0 mg/kg/injection, schedule: Q01DX010 (sc), vehicle: saline with Tween-80) was 0 of 3 on day 11, the survivor count (dose: 8.0 mg/kg/injection, schedule: Q01DX010 (sc), vehicle: saline with Tween-80) was 0 of 3 on day 11 and 0 of 6 on day 11 and the survivor count (dose: 8.0 mg/kg/injection, schedule: Q04DX003 (sc), vehicle: saline with Tween-80) was 0 of 3 on day 11.

In the case of O=C(O)c1c2c(nc3ccccc13)Cc1ccccc1-2, the T/C (dose: 50.0 mg/kg/injection, schedule: Q01DX010 (sc), vehicle: water) is reported as 147 % of control and the survivor count (dose: 400.0 mg/kg/injection, schedule: Q01DX010 (sc), vehicle: water) is reported as 0 of 3 on day 11.

CN(C)CCCNc1c2ccccc2nc2cccc([N+](=O)[O-])c12 was tested, and the survivor count (dose: 3.0 mg/kg/injection, schedule: Q04DX003 (sc), vehicle: saline) was 2 of 6 on day 11.

With C[C@H]1C[C@@H]2[C@H]([C@@H](O)C[C@@]3(C)[C@H]2CC[C@]3(O)C(=O)CO)[C@@]2(C)C=CC(=O)C=C12 the survivor count (dose: 1600.0 mg/kg/injection, schedule: Q04DX003 (sc), vehicle: Klucel (hydroxypropylcellulose) (HPC)) was 3 of 6 on day 11.

In the case of Cc1ncc(CNC(=O)N(CCCl)N=O)c(N)n1, the survivor count (dose: 37.5 mg/kg/injection, schedule: Q04DX003 (sc), vehicle: saline) is reported as 3 of 6 on day 11, the survivor count (dose: 75.0 mg/kg/injection, schedule: Q04DX003 (sc), vehicle: saline) is reported as 0 of 6 on day 11 and the survivor count [3] is reported as 0 of 6 on day 11.

CS(=O)(=O)OCCCNCCCOS(C)(=O)=O was tested, and the survivor count [3] was 2 of 6 on day 11, the survivor count (dose: 300.0 mg/kg/injection, schedule: Q04DX003 (sc), vehicle: saline) was 0 of 6 on day 11 and the survivor count (dose: 600.0 mg/kg/injection, schedule: Q04DX003 (sc), vehicle: saline) was 0 of 6 on day 11.

For CCCCCCCCSC1=C(Cl)C(=O)C(OC)=C(OC)C1=O, the survivor count (dose: 288.0 mg/kg/injection, schedule: Q04DX003 (sc), vehicle: saline with Tween-80) was 0 of 6 on day 11.

For COC1=C(C)C(=O)C2=C(C1=O)C1C3CC4=C(C(=O)C(OC)=C(C)C4=O)C(CNC(=O)C(C)=O)N3C(C#N)C(C2)N1C (stereo unspecified), the survivor count (dose: 8.0 mg/kg/injection, schedule: Q04DX003 (sc), vehicle: Klucel (hydroxypropylcellulose) (HPC)) was 3 of 6 on day 11.

In the case of COC(=O)C(F)C(Br)C(=O)OC (stereo unspecified), the survivor count (dose: 150.0 mg/kg/injection, schedule: Q04DX003 (sc), vehicle: saline with Tween-80) is reported as 2 of 6 on day 11.
